According to PMC5884641:
These are yes or no findings as the source states them, for the method shown. In cells and extracts the contact can be indirect. Some results given as binding are weak or reduced against the parent protein; the word gives no strength. Each block holds one binder with its values, some of them ahead of it.

The chains behind the UniProt entries cited, without tags or fusion partners. Residues count along the entry.
UniProt P11021, residues 19-654: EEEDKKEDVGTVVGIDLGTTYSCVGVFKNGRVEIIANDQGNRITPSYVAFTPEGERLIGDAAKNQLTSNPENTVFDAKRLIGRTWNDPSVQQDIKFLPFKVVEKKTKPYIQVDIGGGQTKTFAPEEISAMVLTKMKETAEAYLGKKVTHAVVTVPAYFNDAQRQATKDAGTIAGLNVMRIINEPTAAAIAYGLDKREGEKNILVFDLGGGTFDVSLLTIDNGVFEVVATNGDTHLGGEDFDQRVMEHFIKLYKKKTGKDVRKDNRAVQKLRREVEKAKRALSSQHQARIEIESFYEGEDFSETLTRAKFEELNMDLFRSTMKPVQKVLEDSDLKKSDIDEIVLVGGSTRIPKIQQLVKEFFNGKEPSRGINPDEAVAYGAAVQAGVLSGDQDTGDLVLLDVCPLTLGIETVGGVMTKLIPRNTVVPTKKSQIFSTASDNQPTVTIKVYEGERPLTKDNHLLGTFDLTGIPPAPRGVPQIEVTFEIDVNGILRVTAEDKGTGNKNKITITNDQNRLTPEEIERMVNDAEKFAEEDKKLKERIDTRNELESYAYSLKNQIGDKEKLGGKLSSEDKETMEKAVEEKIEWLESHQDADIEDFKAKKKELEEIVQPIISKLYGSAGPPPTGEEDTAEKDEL

Molecular target: His-tagged GRP78 (glucose-regulated protein 78) (UniProt P11021)
Assay: co-IP; RAW264.7 cells treated with 40 nM purified His-GRP78 for different times, lysed (Western and IP buffer); 800 ug lysate, anti-His antibody or control IgG overnight, Protein A/G PLUS-Agarose 2 h at 4 C; Western blot of the endogenous partner; only the target purified

binding: binds
B1: Caveolin-1 (protein, UniProt P49817 1-178)
chain: MSGGKYVDSEGHLYTVPIREQGNIYKPNNKAMADEVTEKQVYDAHTKEIDLVNRDPKHLNDDVVKIDFEDVIAEPEGTHSFDGIWKASFTTFTVTKYWFYRLLSTIFGIPMALIWGIYFAILSFLHIWAVVPCIKSFLIEIQCISRVYSIYVHTFCDPLFEAIGKIFSNIRISTQKEI

binding: no binding
B2: LAMP1 (protein, UniProt P11438 25-406)
chain: LFEVKNNGTTCIMASFSASFLTTYETANGSQIVNISLPASAEVLKNGSSCGKENVSDPSLTITFGRGYLLTLNFTKNTTRYSVQHMYFTYNLSDTEHFPNAISKEIYTMDSTTDIKADINKAYRCVSDIRVYMKNVTVVLRDATIQAYLSSGNFSKEETHCTQDGPSPTTGPPSPSPPLVPTNPTVSKYNVTGNNGTCLLASMALQLNITYLKKDNKTVTRAFNISPNDTSSGSCGINLVTLKVENKNRALELQFGMNASSSLFFLQGVRLNMTLPDALVPTFSISNHSLKALQATVGNSYKCNTEEHIFVSKMLSLNVFSVQVQAFKVDSDRFGSVEECVQDGNNMLIPIAVGGALAGLVLIVLIAYLIGRKRSHAGYQTI
